PubChem BioAssay AID1053208 – Peter MacCallum Cancer Centre | 2014

Assay: 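Find knock-downs that sensitise mouse osteosarcoma cells to doxorubicin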 (primary screen)
System: mouse osteosarcoma cells, early-passage culture from an engineered mouse model of fibroblastic bone tumour
Reagent: siRNA pool against mouse genes, 40 nM
Duration: about 120 h (48 h before drug, then 72 h with drug)
Conditions: doxorubicin 100 nM for 72 h, roughly 30-40% inhibitory dose
Measured: 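Luminescent ATP signal taken as viability with or without 100 nM doxorubicin for 72 h; mean of two wells set against non-targeting siRNA and turned into robust z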
Direction: viability z-score with doxorubicin: higher = more viable cells under doxorubicin; viability z-score without drug: higher = more viable cells with knock-down alone
Call rule: 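a pool counts as active when its viability z-score with doxorubicin is -2 or below and its z-score without drug lies between -2 and 2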
This is one part, drawn at random, of about 17,000 reagents tested. 788 of them (4.7%) count as active. 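Calls rest on z-score classes alone; an extra cut-off of viability at most 70% of control was not applied to them.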 Entries without a mark were called inactive. Reagents against one gene are numbered here. Further read-outs or replicates are left out here. No sequences are given here.

Sema4d — combined z-score class = no change with or without drug; viability z-score with doxorubicin = 0; viability z-score without drug = 0.17
1110059G10Rik — combined z-score class = no change with or without drug; viability z-score with doxorubicin = 1.57; viability z-score without drug = 1.52
B230206H07Rik — combined z-score class = no change with or without drug; viability z-score with doxorubicin = -1.35; viability z-score without drug = 0.51
Sfrp2 — combined z-score class = no change with or without drug; viability z-score with doxorubicin = 0.22; viability z-score without drug = 0.51
Or2y10 — combined z-score class = no change with or without drug; viability z-score with doxorubicin = -0.45; viability z-score without drug = -1.35
E2f2 #1 — combined z-score class = high cell count with doxorubicin only; viability z-score with doxorubicin = 2.25; viability z-score without drug = 1.18
E2f2 #2 — combined z-score class = no change with or without drug; viability z-score with doxorubicin = -1.91; viability z-score without drug = 0.51
Asb18 — combined z-score class = no change with or without drug; viability z-score with doxorubicin = 1.01; viability z-score without drug = 0.84
Rasgrf1 — combined z-score class = high cell count with and without drug; viability z-score with doxorubicin = 2.02; viability z-score without drug = 2.02
Cdc25c — combined z-score class = no change with or without drug; viability z-score with doxorubicin = 0.22; viability z-score without drug = -0.17
Spty2d1 — combined z-score class = no change with or without drug; viability z-score with doxorubicin = -0.34; viability z-score without drug = -0.17
Hexb — combined z-score class = no change with or without drug; viability z-score with doxorubicin = -0.45; viability z-score without drug = -0.17
Eif2s3x — combined z-score class = no change with or without drug; viability z-score with doxorubicin = -0.67; viability z-score without drug = -1.01
Kdm3b — combined z-score class = no change with or without drug; viability z-score with doxorubicin = -0.67; viability z-score without drug = 0.17

Continued, starting with the last 2 of the part before.
Eif2s3x — combined z-score class = no change with or without drug; viability z-score with doxorubicin = -0.67; viability z-score without drug = -1.01
Kdm3b — combined z-score class = no change with or without drug; viability z-score with doxorubicin = -0.67; viability z-score without drug = 0.17
Efna4 — combined z-score class = no change with or without drug; viability z-score with doxorubicin = -1.35; viability z-score without drug = -0.17
Arr3 — combined z-score class = no change with or without drug; viability z-score with doxorubicin = 1.24; viability z-score without drug = -0.17
Gaa — combined z-score class = no change with or without drug; viability z-score with doxorubicin = 0.45; viability z-score without drug = -0.34
Fbxo28 — combined z-score class = no change with or without drug; viability z-score with doxorubicin = -0.45; viability z-score without drug = -0.17
Or10ag52 — combined z-score class = no change with or without drug; viability z-score with doxorubicin = 1.46; viability z-score without drug = 0.84
H3f3a — combined z-score class = no change with or without drug; viability z-score with doxorubicin = 0.9; viability z-score without drug = 0.84
H2-M9 — combined z-score class = no change with or without drug; viability z-score with doxorubicin = -0.22; viability z-score without drug = -0.67
Robo3 — combined z-score class = no change with or without drug; viability z-score with doxorubicin = 0.79; viability z-score without drug = -0.17
Acsl3 — combined z-score class = no change with or without drug; viability z-score with doxorubicin = 0.22; viability z-score without drug = -0.51
Chit1 — combined z-score class = no change with or without drug; viability z-score with doxorubicin = -1.91; viability z-score without drug = -1.52
4931431C16Rik — combined z-score class = high cell count with doxorubicin only; viability z-score with doxorubicin = 3.26; viability z-score without drug = 1.69
Hjv — combined z-score class = no change with or without drug; viability z-score with doxorubicin = -1.35; viability z-score without drug = -1.52
Stard13 — combined z-score class = no change with or without drug; viability z-score with doxorubicin = -0.34; viability z-score without drug = -0.17
Scn3a — combined z-score class = no change with or without drug; viability z-score with doxorubicin = -0.79; viability z-score without drug = 1.18
